Laboratory results taken from patent publication US20160060307A1 (KYUNGPOOK NATIONAL UNIVERSITY INDUSTRY ACADEMIC COOPERATION …, published 2016).
No constants are given. Whether binding was seen depends on the method and setting. Some entries that bind do so weakly or less than the wild type. For some assays here: Where a sequence is shown, tags or fusion partners need not be part of it.

Chains of the proteins cited; added tags and fusions are not shown. Residues count along the entry.
UniProt P24394, residues 26-825: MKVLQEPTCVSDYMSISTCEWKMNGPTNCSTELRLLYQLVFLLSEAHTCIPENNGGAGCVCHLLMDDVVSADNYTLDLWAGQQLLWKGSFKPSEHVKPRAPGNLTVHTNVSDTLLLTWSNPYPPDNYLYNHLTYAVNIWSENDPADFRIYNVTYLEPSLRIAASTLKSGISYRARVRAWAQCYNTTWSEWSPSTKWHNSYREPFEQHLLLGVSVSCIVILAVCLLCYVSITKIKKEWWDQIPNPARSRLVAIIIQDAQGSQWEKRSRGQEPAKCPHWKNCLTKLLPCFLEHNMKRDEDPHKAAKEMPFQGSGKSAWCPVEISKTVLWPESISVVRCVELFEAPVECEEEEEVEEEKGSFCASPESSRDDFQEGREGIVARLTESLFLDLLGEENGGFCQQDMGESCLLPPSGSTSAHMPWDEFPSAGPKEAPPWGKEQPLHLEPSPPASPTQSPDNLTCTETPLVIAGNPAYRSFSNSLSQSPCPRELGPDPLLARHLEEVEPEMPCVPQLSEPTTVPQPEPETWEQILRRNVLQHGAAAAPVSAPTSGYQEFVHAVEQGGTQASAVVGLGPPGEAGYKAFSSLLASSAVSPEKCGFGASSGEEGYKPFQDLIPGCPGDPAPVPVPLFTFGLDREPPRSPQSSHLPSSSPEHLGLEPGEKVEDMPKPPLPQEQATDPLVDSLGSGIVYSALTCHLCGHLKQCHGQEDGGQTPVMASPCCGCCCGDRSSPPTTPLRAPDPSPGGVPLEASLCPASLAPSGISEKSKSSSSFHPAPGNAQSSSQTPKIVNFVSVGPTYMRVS

Columns and labels:
[1] = target: IL-4 receptor on A549 cells overexpressing IL-4 receptor (human) (UniProt P24394); assay: flow cytometry on A549 cells
[2] = target: IL-4 receptor protein immobilised on carboxymethyl dextran chip (SPR) (Homo sapiens (Human)) (UniProt P24394); assay: SPR, IL-4 receptor immobilised
[3] = target: IL-4 receptor on A549 cells overexpressing IL-4 receptor (human) (UniProt P24394); assay: flow cytometry on A549 cells, 400 nM
[4] = target: IL-4 receptor on A549 cells overexpressing IL-4 receptor (human) (UniProt P24394); assay: confocal microscopy on A549 cells, 400 nM
[5] = target: IL-4 receptor protein immobilised on carboxymethyl dextran chip (SPR) (Homo sapiens (Human)) (UniProt P24394); assay: SPR, IL-4 receptor immobilised, 0.65 nM to 41.6 nM
[6] = target: IL-4 receptor protein immobilised on carboxymethyl dextran chip (SPR) (Homo sapiens (Human)) (UniProt P24394); assay: SPR, IL-4 receptor protein immobilised on carboxymethyl dextran chip, ferritin in flow, 0.260-4.166 nM
[7] = target: IL-4 receptor protein immobilised on carboxymethyl dextran chip (SPR) (Homo sapiens (Human)) (UniProt P24394); assay: SPR, IL-4 receptor protein immobilised on carboxymethyl dextran chip, ferritin in flow, 0.651-10.416 nM
[8] = target: IL-4 receptor protein immobilised on carboxymethyl dextran chip (SPR) (Homo sapiens (Human)) (UniProt P24394); assay: SPR, IL-4 receptor protein immobilised on carboxymethyl dextran chip, RU against ferritin concentration 0.65-41.6 nM
[9] = target: IL-4 receptor on A549 cells overexpressing IL-4 receptor (human) (UniProt P24394); assay: FACS on A549 cells overexpressing IL-4 receptor, ferritin at 400 nM and 200 nM, anti-ferritin light chain antibody and Alexa Fluor 488 secondary
[10] = target: IL-4 receptor on A549 cells overexpressing IL-4 receptor (human) (UniProt P24394); assay: FACS on A549 cells overexpressing IL-4 receptor, ferritin at 400 nM, detection with anti-ferritin light chain antibody and Alexa Fluor 488 secondary
[11] = target: IL-4 receptor on A549 cells overexpressing IL-4 receptor (human) (UniProt P24394); assay: confocal microscopy of A549 cells overexpressing IL-4 receptor, ferritin at 400 nM, anti-ferritin light chain antibody and Alexa Fluor 488 secondary
[12] = target: IL-4 receptor protein immobilised on carboxymethyl dextran chip (SPR) (Homo sapiens (Human)) (UniProt P24394); assay: SPR, IL-4 receptor protein immobilised on carboxymethyl dextran chip, ferritin in flow, 0.520-4.166 nM

Measured: binding

B1: FTL-GG-AP1S: ferritin having AP1S inserted in GG cassette (human ferritin light chain, fourth loop) (designed binder)
chain: MSSQIRQNYSTDVEAAVNSLVNLYLQASYTYLSLGFYFDRDDVALEGVSHFFRELAEEKREGYERLLKMQNQRGGRALFQDIKKPAEDEWGKTPDAMKAAMALEKKLNQALLDLHALGSARTDPHLCDFLETHFLDEEVKLIKKMGDHLTNLHRGSRKRLDRNGGPEAGLGEYLFERLTLKHD
modifications: One monomer is given; it assembles into a 24-mer ferritin cage.
notes: It forms a ferritin-like cage (24-mer); also called FTL-AP1; not shown: His tag from the pET28a(+) vector (Ni-NTA purification, anti-His probe)
binds: [1] | [2] | [3] | [4] | [5] | [6] | [7] | [8] | [9] | [10] | [11]

B2: FTL-GP-AP1S: ferritin having AP1S inserted in GP cassette (human ferritin light chain, fourth loop) (designed binder)
chain: MSSQIRQNYSTDVEAAVNSLVNLYLQASYTYLSLGFYFDRDDVALEGVSHFFRELAEEKREGYERLLKMQNQRGGRALFQDIKKPAEDEWGKTPDAMKAAMALEKKLNQALLDLHALGSARTDPHLCDFLETHFLDEEVKLIKKMGDHLTNLHRLGSRKRLDRNGPEAGLGEYLFERLTLKHD
modifications: One monomer is given; it assembles into a 24-mer ferritin cage.
notes: pET28a(+) expression with Ni-NTA purification (His tag); Cage-forming; not shown: His tag from the pET28a(+) vector (Ni-NTA purification, anti-His probe)
binds: [2] | [3] | [4] | [5] | [7] | [8] | [10] | [11]

B3: FTL-GG-AP1L: ferritin having AP1L inserted in GG cassette (human ferritin light chain, fourth loop) (designed binder)
chain: MSSQIRQNYSTDVEAAVNSLVNLYLQASYTYLSLGFYFDRDDVALEGVSHFFRELAEEKREGYERLLKMQNQRGGRALFQDIKKPAEDEWGKTPDAMKAAMALEKKLNQALLDLHALGSARTDPHLCDFLETHFLDEEVKLIKKMGDHLTNLHRGSCRKRLDRNCGGPEAGLGEYLFERLTLKHD
modifications: One monomer is given; it assembles into a 24-mer ferritin cage.
notes: pET28a(+) expression with Ni-NTA purification (His tag); Cage-forming; also called 157cysAP1-PBNC; not shown: His tag from the pET28a(+) vector (Ni-NTA purification, anti-His probe)
binds: [2] | [3] | [4] | [5] | [7] | [8] | [10] | [11]

B4: FTL-GP-AP1L: ferritin having AP1L inserted in GP cassette (human ferritin light chain, fourth loop) (designed binder)
chain: MSSQIRQNYSTDVEAAVNSLVNLYLQASYTYLSLGFYFDRDDVALEGVSHFFRELAEEKREGYERLLKMQNQRGGRALFQDIKKPAEDEWGKTPDAMKAAMALEKKLNQALLDLHALGSARTDPHLCDFLETHFLDEEVKLIKKMGDHLTNLHRLGSCRKRLDRNCGPEAGLGEYLFERLTLKHD
modifications: One monomer is given; it assembles into a 24-mer ferritin cage.
notes: as for B2
binds: [2] | [3] | [4] | [5] | [7] | [8] | [10] | [11]

B5: FTL-AP1_AP1: fusion polypeptide in which AP1S was fused to N-terminal of FTL_GG-AP1S (designed binder)
chain: MRKRLDRNGGGSGMSSQIRQNYSTDVEAAVNSLVNLYLQASYTYLSLGFYFDRDDVALEGVSHFFRELAEEKREGYERLLKMQNQRGGRALFQDIKKPAEDEWGKTPDAMKAAMALEKKLNQALLDLHALGSARTDPHLCDFLETHFLDEEVKLIKKMGDHLTNLHRGSRKRLDRNGGPEAGLGEYLFERLTLKHD
modifications: One monomer is given; it assembles into a 24-mer ferritin cage.
notes: Expressed from pET28a(+) via NdeI/XhoI and purified on Ni-NTA (His tag); also called ferritin having two inserted AP1 peptides; not shown: His tag from the pET28a(+) vector (Ni-NTA purification)
binds: [1] | [12] | [9]
